Laboratory results from PMC13056571.
These are yes or no findings as the source states them, for the method shown. In cells and extracts the contact can be indirect. Binding can be weak; no strength is given.

Amino acid sequences for entries named in this document (tags omitted). A change or cut given only in a name is not applied to a line headed by its entry.
UniProt Q4GZ37: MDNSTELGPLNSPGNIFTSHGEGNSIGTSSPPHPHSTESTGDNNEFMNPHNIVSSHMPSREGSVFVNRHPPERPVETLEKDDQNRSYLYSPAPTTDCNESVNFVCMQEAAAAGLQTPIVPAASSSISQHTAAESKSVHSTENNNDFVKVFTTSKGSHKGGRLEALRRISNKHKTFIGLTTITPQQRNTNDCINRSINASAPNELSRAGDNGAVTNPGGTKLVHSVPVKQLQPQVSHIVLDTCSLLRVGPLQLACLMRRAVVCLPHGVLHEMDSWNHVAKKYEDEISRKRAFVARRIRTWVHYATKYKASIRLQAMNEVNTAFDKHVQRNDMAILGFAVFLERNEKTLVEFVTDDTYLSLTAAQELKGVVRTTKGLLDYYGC
UniProt Q4FKV6: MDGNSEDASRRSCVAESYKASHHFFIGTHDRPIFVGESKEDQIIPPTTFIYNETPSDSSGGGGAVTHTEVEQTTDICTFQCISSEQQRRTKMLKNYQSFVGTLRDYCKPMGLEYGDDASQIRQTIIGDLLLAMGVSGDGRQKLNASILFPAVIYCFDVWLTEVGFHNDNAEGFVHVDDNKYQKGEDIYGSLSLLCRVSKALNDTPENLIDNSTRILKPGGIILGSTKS

Target: GFP-myc-tagged ESB2 (T. brucei) (UniProt Q4GZ37)
Assay: co-IP; lysate of bloodstream-form T. brucei (20 mM HEPES pH 7.4, 1 mM MgCl2, 10 uM CaCl2, 250 mM sodium citrate, 0.1% Tween-20), sonicated, micrococcal nuclease; GFP-Trap magnetic agarose beads or anti-GFP Dynabeads, 4 C for 2 h; 10 washes in lysis buffer and one in RIPA; anti-HA blot for the prey; single tagged 6HA-ESB3 line as negative control

Substance: 6xHA-tagged ESB3 (from UniProt Q4FKV6)
- binding: binds
